Measurements reported in PubChem BioAssay AID504774 (Drosophila RNAi Screening Center, 2011)
Aim: 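Knock-downs that shift viability of MMS-exposed cells relative to untreated ones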 (primary screen). System: Drosophila Kc167 cells. Knock-down reagent: long dsRNA against Drosophila genes, about 0.25 µg dsRNA per well. Timing: about 6 days: 3 days knock-down, then 3 days with or without MMS. Conditions: methyl methanesulphonate 0.004% (w/v) for 3 days after knock-down. Measured: 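Viability in wells given MMS, read as ATP luminescence, normalised by quantiles plate by plate and averaged across replicates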. Reading the numbers: mean viability with MMS and viability with MMS: higher = more surviving cells after MMS.
The screen tested about 23,000 reagents; shown is an unselected part of those that have a named target and a result. 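Values are quantile-normalised luminescence on an arbitrary scale; higher means more cells surviving MMS.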 A plus sign joins genes that one reagent is predicted to hit.

no.	target	DRSC id	mean viability with MMS	viability with MMS, replicate 1	viability with MMS, replicate 2
1	Ak1	DRSC10248	3.43e6	3.82e6	3.94e6
2	CG42404	DRSC15558	3.39e6	3.88e6	3.77e6
3	Kdm3	DRSC16393	3.63e6	4.11e6	4.06e6
4	poe	DRSC03593	3.52e6	4.01e6	3.97e6
5	CG15465	DRSC18048	3.38e6	3.67e6	3.99e6
6	CG34330	DRSC20043	3.64e6	4.14e6	4.06e6
7	galla-2	DRSC10936	3.66e6	3.76e6	3.67e6
8	galla-2	DRSC21949	3.41e6	3.95e6	3.86e6
9	CG15729 (retired record)	DRSC19695	3.48e6	3.91e6	3.97e6
10	Wnk	DRSC11813	3.10e6	3.58e6	3.64e6
11	Ranbp16	DRSC20160	3.65e6	4.19e6	4.07e6
12	CG17237	DRSC00491	3.71e6	4.11e6	4.35e6
13	CG15879	DRSC08487	3.53e6	4.01e6	3.99e6
14	Amt	DRSC16055	3.41e6	3.81e6	3.91e6
15	Tps1	DRSC00269	3.57e6	4.06e6	4.03e6
16	Dro	DRSC07406	3.64e6	4.26e6	3.97e6
17	CG5535	DRSC10514	3.71e6	4.26e6	4.07e6
18	sqh	DRSC18837	3.36e6	4.10e6	4.36e6
19	CG15219	DRSC03715	3.71e6	4.13e6	4.22e6
20	CG7985	DRSC14128	3.59e6	4.03e6	4.10e6
21	CG14762	DRSC05073	3.58e6	4.06e6	4.08e6
22	CG14762	DRSC06496	3.57e6	4.12e6	3.95e6
23	CG10799	DRSC06002	3.65e6	4.34e6	3.98e6
24	alpha-Spec	DRSC08704	3.55e6	4.01e6	4.04e6
25	mei-P22	DRSC11366	3.70e6	4.14e6	4.25e6
26	CG4393	DRSC15573	3.46e6	3.95e6	3.86e6
27	CG9395	DRSC03218	3.49e6	3.96e6	3.96e6
28	Alp11	DRSC20080	3.54e6	4.05e6	3.99e6
29	Scamp	DRSC20286	3.46e6	3.89e6	3.94e6
30	CG31436	DRSC14661	3.38e6	3.88e6	3.71e6
31	CG7179	DRSC03020	3.31e6	3.66e6	3.77e6
32	Pyroxd1	DRSC02098	3.55e6	3.98e6	4.06e6
33	Crg-1	DRSC22882	3.38e6	3.85e6	3.93e6
34	ph-d	DRSC18819	2.95e6	3.68e6	3.63e6
35	ph-d	DRSC23191	3.79e6	4.24e6	4.36e6
36	CG13023	DRSC09454	3.47e6	3.95e6	3.94e6
37	CG13023	DRSC09903	3.69e6	4.10e6	4.21e6
38	Lipt1	DRSC05600	3.58e6	4.06e6	4.04e6
39	Lipt1	DRSC07183	3.47e6	3.91e6	3.95e6
40	CG12343	DRSC06135	3.38e6	3.84e6	3.82e6
41	CG31740	DRSC01619	3.62e6	4.11e6	4.08e6
42	PolA1	DRSC16640	3.39e6	3.83e6	3.85e6
43	ERp44	DRSC20215	3.61e6	4.33e6	3.95e6
44	CG4199	DRSC18519	3.54e6	3.98e6	4.05e6
45	CG4199	DRSC21314	3.39e6	3.89e6	3.86e6
46	Pex10	DRSC08599	3.60e6	4.03e6	4.16e6
47	Pex10	DRSC22021	3.63e6	4.18e6	4.00e6
48	Dic1	DRSC14125	3.38e6	3.90e6	3.74e6
49	betaTub65B	DRSC11393	3.69e6	4.24e6	4.14e6
50	GramD1B	DRSC00426	3.66e6	3.98e6	4.27e6
51	GramD1B	DRSC00591	3.44e6	3.98e6	3.74e6
52	Arl6	DRSC07031	3.70e6	4.27e6	4.08e6
53	rut	DRSC20367	2.70e6	3.41e6	3.41e6
54	rut	DRSC22976	2.43e6	2.84e6	2.50e6
55	RpL17	DRSC18293	2.58e6	3.12e6	2.95e6
56	CG33640	DRSC01324	3.47e6	4.03e6	3.84e6
57	CR18217	DRSC21506	3.59e6	4.16e6	3.99e6
58	CG4367	DRSC15568	3.55e6	4.02e6	4.03e6
59	Cad88C	DRSC15486	3.47e6	4.08e6	3.77e6
60	stau	DRSC07698	3.53e6	3.86e6	4.14e6
61	mmd	DRSC19672	3.36e6	3.81e6	3.75e6
62	mmd	DRSC19673	3.52e6	4.00e6	4.00e6
63	mmd	DRSC20161	3.53e6	4.01e6	4.01e6
64	mmd	DRSC23042	3.39e6	3.85e6	3.86e6
65	Rrp47	DRSC20124	3.63e6	4.14e6	4.06e6
66	CG12783	DRSC14538	3.42e6	3.91e6	3.83e6
67	CG7879	DRSC08600	3.53e6	3.82e6	4.17e6
68	bdwf	DRSC15532	3.52e6	3.98e6	4.00e6
69	Inx7 + cm	DRSC18753	3.61e6	4.01e6	4.18e6
70	CG8490	DRSC07194	3.54e6	3.85e6	4.17e6
71	qkr58E-1	DRSC04709	3.49e6	3.95e6	3.72e6
72	Poxm	DRSC16793	3.64e6	4.30e6	4.19e6
73	Poxm	DRSC22839	3.56e6	4.06e6	4.01e6
74	CG5767	DRSC06953	3.63e6	4.13e6	4.08e6
75	CG6462	DRSC10641	3.64e6	4.22e6	4.06e6
76	CG31886	DRSC03248	3.80e6	4.57e6	4.05e6
77	Dark	DRSC05922	3.49e6	3.95e6	3.97e6
78	spn-E	DRSC17064	3.57e6	3.94e6	4.18e6
79	CG6974	DRSC16160	3.57e6	4.22e6	3.90e6
80	CG12551 (retired record)	DRSC04857	3.68e6	4.27e6	4.06e6
81	CG12551 (retired record)	DRSC04864	3.63e6	4.19e6	4.05e6
82	CG7970	DRSC08605	3.58e6	4.08e6	4.04e6
83	dsx	DRSC12649	3.70e6	4.32e6	3.98e6
84	dsx	DRSC16934	3.94e6	4.52e6	4.36e6
85	dsx	DRSC21495	3.80e6	4.26e6	4.30e6
86	pad	DRSC14227	3.56e6	4.05e6	4.05e6
87	Taf2	DRSC11298	3.28e6	3.74e6	3.75e6

6 successive reagents already listed, quoted:
no.	target	DRSC id	mean viability with MMS	viability with MMS, replicate 1	viability with MMS, replicate 2
2	CG42404	DRSC15558	3.39e6	3.88e6	3.77e6
3	Kdm3	DRSC16393	3.63e6	4.11e6	4.06e6
4	poe	DRSC03593	3.52e6	4.01e6	3.97e6
5	CG15465	DRSC18048	3.38e6	3.67e6	3.99e6
6	CG34330	DRSC20043	3.64e6	4.14e6	4.06e6
7	galla-2	DRSC10936	3.66e6	3.76e6	3.67e6
